{
  "source": "paper PMC7819943",
  "about": "“Rice protein-binding microarrays: a tool to detect cis-acting elements near promoter regions in rice”",
  "note": "Some of the results follow.",
  "data": [
    {"target": "T1, OsSMF1 (Oryza sativa, UniProt Q6ZLB0 1-436)", "T1 sequence": "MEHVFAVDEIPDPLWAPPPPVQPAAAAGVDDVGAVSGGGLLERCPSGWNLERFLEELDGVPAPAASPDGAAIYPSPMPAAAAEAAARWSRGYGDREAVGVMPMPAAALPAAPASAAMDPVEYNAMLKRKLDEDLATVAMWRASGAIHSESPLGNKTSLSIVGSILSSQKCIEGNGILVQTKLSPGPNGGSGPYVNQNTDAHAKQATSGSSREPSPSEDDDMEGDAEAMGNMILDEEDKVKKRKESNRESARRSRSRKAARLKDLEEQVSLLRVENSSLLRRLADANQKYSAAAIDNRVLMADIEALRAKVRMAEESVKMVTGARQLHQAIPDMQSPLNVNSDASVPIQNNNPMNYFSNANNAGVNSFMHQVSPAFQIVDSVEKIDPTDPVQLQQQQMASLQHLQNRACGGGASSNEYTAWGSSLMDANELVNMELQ", "assay": "protein-binding microarray (RPBM); PBS, 2% BSA, 51.3 ng/ul salmon testes DNA, 50 uM zinc acetate, 200 nM TF, 25 C, 1 h; high values mean tight binding", "conditions": "protein: recombinant; tags: N-terminal polyhistidine and DsRed monomer fusion (pET32a); chain copies: 2; label: CyDye5-dUTP incorporated in the synthesized complementary strand; 3' TTTTT single-stranded linker to array surface; dsDNA, one strand shown", "in_short": "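Polyhistidine-tagged DsRed fusions of transcription factors, joined at the N-terminus, were expressed in E. coli BL21-CodonPlus and isolated on Ni–NTA. They were incubated at 200 nM for 1 h at 25 °C on a custom Agilent array, double-stranded and BSA-blocked, in PBS with 2% BSA, salmon testes DNA and 50 µM zinc acetate. The binding signal is per-feature fluorescence intensity (arbitrary units) read on an Axon 4000B scanner after washing.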", "values": [
      {"sequence": "AAGGTAGGTTGTAGAACTGATGATCTGTCAATGGTGAAATCGGAGTCACCTAGTGCAG", "binding signal": "4940 fluorescence intensity (a.u.)"},
      {"sequence": "CCATTAATTTCTACGTAAGCATTCGTAGCTATGGAGGAGTCGGAGTCACCTAGTGCAG", "binding signal": "4530 fluorescence intensity (a.u.)"},
      {"sequence": "CGGGGAGAGTCCGCCGCAGCGCCAGCGCATTCGGCGACACCGGAGTCACCTAGTGCAG", "binding signal": "3890 fluorescence intensity (a.u.)"},
      {"sequence": "TCACGTTGAAGTGACTAGATGGGAACTAATATTTTATTGCCGGAGTCACCTAGTGCAG", "binding signal": "4230 fluorescence intensity (a.u.)"},
      {"sequence": "ATTGGGTGCTTCTTCCAACCCCATCAGCTTGGCAATGACACGGAGTCACCTAGTGCAG", "binding signal": "3450 fluorescence intensity (a.u.)"},
      {"sequence": "TGACGGGGTTTGGTCTCATCTTTCGTGGTCAGATTTGCCGCGGAGTCACCTAGTGCAG", "binding signal": "4730 fluorescence intensity (a.u.)"},
      {"sequence": "ACTGGCTAGCAAAACGAAGTATTGTGCAGTTTGGCGGGAACGGAGTCACCTAGTGCAG", "binding signal": "35100 fluorescence intensity (a.u.)"},
      {"sequence": "TCAAGTGATTTTGCCTAGACACAAGAGTCCACGTGGTTGGCGGAGTCACCTAGTGCAG", "binding signal": "7160 fluorescence intensity (a.u.)"},
      {"sequence": "GCAAAATAGGCTTATTCCATGACGAATGCTTCTCTCCCCGCGGAGTCACCTAGTGCAG", "binding signal": "3330 fluorescence intensity (a.u.)"},
      {"sequence": "AGGGACGAGCCGGGCGGACAAGAGGACGACAGCACGCGAGCGGAGTCACCTAGTGCAG", "binding signal": "33400 fluorescence intensity (a.u.)"},
      {"sequence": "ACCAGTGGGCGCCACGCCATGAACAGCTCAGCTCACCGCACGGAGTCACCTAGTGCAG", "binding signal": "5150 fluorescence intensity (a.u.)"},
      {"sequence": "GAGAGGTCTGCCCCGTGGTCAAGCCGTGCCGCGTCGTCGTCGGAGTCACCTAGTGCAG", "binding signal": "4650 fluorescence intensity (a.u.)"},
      {"sequence": "GACTGACTCCATGTCGCGACTAATCACACGTCAGGATCGACGGAGTCACCTAGTGCAG", "binding signal": "8650 fluorescence intensity (a.u.)"},
      {"sequence": "AATATAATCTTCGAGGAATCTATGATGTGGCAGCTAAGGACGGAGTCACCTAGTGCAG", "binding signal": "13500 fluorescence intensity (a.u.)"},
      {"sequence": "TACTGGAGTGCAAAATTGCCATAAATTTTGCCAAGTATGCCGGAGTCACCTAGTGCAG", "binding signal": "3620 fluorescence intensity (a.u.)"},
      {"sequence": "GTGGTACTACTACGTACGCGGAGTAATATTTGTTTTAGTACGGAGTCACCTAGTGCAG", "binding signal": "3510 fluorescence intensity (a.u.)"},
      {"sequence": "TGACATGTGAGCCCAATGTGTCAGCAACATTAGCAACGATCGGAGTCACCTAGTGCAG", "binding signal": "7750 fluorescence intensity (a.u.)"},
      {"sequence": "AACATCCATCACTGCAGCAAATCATCATCATCATCATCATCGGAGTCACCTAGTGCAG", "binding signal": "4660 fluorescence intensity (a.u.)"},
      {"sequence": "GAGAGAGAGAGAGAGGGGAGGGGAGGGCGTGTGCTCGCGCCGGAGTCACCTAGTGCAG", "binding signal": "5190 fluorescence intensity (a.u.)"},
      {"sequence": "GCCTCGCTGACGCCGCCGGCGGCGCGCGCGCCGTCTCCCTCGGAGTCACCTAGTGCAG", "binding signal": "4140 fluorescence intensity (a.u.)"},
      {"sequence": "ACGAATCGTGACGTCCGCCGTGTCGCGAGGCGAGAGGGGCCGGAGTCACCTAGTGCAG", "binding signal": "3870 fluorescence intensity (a.u.)"},
      {"sequence": "TTCCCGAGGATATATAATCGATCATGCTACACGTGACATACGGAGTCACCTAGTGCAG", "binding signal": "3240 fluorescence intensity (a.u.)"},
      {"sequence": "CACCGACCACCGCCACGCGCTGCTCCACCACCGCGTCCTCCGGAGTCACCTAGTGCAG", "binding signal": "3540 fluorescence intensity (a.u.)"}
    ]}
  ]
}
